PubChem BioAssay AID493014 (National Center for Advancing Translational Sciences (NCATS), 2011)
Some of the results follow. Shown are side measurements of this screen, not its main read-out; they come without a call. Most of these compounds were active or inconclusive in the main read-out, so they are no random draw. Potencies come from curve fits of mixed quality, noted in brackets.

Assay: qHTS Assay to Find Inhibitors of Chronic Active B-Cell Receptor Signaling
Conditions: ABC-DLBCL IkBa-CBG/CBR reporter, luminescence ratio (green luciferase fused to IkBa over red control in TMD8 lymphoma cells), 4 h
Procedure, shortened: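 Cell line TMD8 (human ABC DLBCL), stably expressing tet-inducible CBG68-IkBa fusion and CBR; IMDM/0.5% FBS; cpd up to 46 uM; dox induction, 4 h, 37C/5% CO2; dual luminescence; green/red ratio; MG132 control.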

[1] = measured here: CBR red luminescence, cell number
[2] = measured here: IkBa-CBG green luminescence

Structure (SMILES)	AC50 [1]	AC50 [2]
COc1ccc(CCN2CCCC(CN(C)C(=O)c3ccoc3C)C2)cc1 (configuration not stated)	31.6 µM [rising, single point]	–
COc1ccc(/C=C/C(=O)OCC(=O)c2ccccc2F)cc1	3.66 µM [rising, partial curve, poor fit]	–
COc1nnc(-c2ccc(N3CCCCC3)c(NC(C)=O)c2)c2ccccc12	9.2 µM [falling, partial curve, poor fit]	–
CCN(CC)CCCNC(=O)CSc1c2c(nc3cc(Cl)ccc13)CCCC2	5.01 µM [falling, partial curve, poor fit]	–
CC(C)C(=O)Nc1ccc2nn(-c3ccc(F)cc3)nc2c1	2.51 µM [rising, full curve, poor fit]	–
COc1ccc(CC(=O)OCC(=O)NC(=O)NC(C)C)cc1	13 µM [rising, partial curve, poor fit]	–
Cc1nn(-c2ccccc2)c(C)c1C(=O)OCC(=O)Nc1cccc(S(N)(=O)=O)c1	7.31 µM [falling, single point]	–
CCCOC(=O)C1=C(C)NC(=O)NC1c1ccc(Br)s1 (configuration not stated)	12.6 µM [rising, partial curve, poor fit]	–
COc1ccc(-c2nc(-c3ccncc3)no2)c(OC)c1	0.282 µM [falling, full curve]	–
O=C(O)C1CCCCN1C(=O)c1cc2c(s1)CCCCC2 (configuration not stated)	6.51 µM [falling, partial curve]	–
CCC(=O)N1CCCc2cc(S(=O)(=O)N3CCN(c4ccccn4)CC3)ccc21	0.103 µM [rising, full curve, poor fit]	–
CCCCN(C)C/C(O)=C(\C#N)c1nc(-c2ccccc2)cs1	29.1 µM [falling, single point]	–
O=C(Nc1cccc(Br)c1)c1cc(S(=O)(=O)N2CCOCC2)cs1	35.5 µM [falling, single point]	–
Cc1cc(C)nc(/N=C(\NC(=O)C(C)(C)C)Nc2ccccc2)n1	1.26 µM [rising, full curve, poor fit]	–
Cc1ccc(-c2cc(C(=O)N/N=C/c3c(C)nn(-c4ccccc4)c3C)n[nH]2)s1	7.31 µM [rising, partial curve, poor fit]	2.59 µM [falling, partial curve, poor fit]
COc1ccc(C(=O)COC(=O)c2ccn(C)n2)cc1	7.08 µM [rising, partial curve, poor fit]	–
Cn1c(=O)c2c(ncn2CC(=O)N2CCN(C(=O)c3ccco3)CC2)n(C)c1=O	6.31 µM [rising, single point]	–
Oc1ccc(/C=C/c2ccc3ccccc3n2)cc1	11.2 µM [falling, partial curve, poor fit]	–
Cc1cccc2sc(N(CCCN(C)C)C(=O)c3ccc(Cl)s3)nc12	14.1 µM [falling, single point]	–
CCOC(=O)Cn1c(=O)oc2cc(S(=O)(=O)NC3CCCc4ccccc43)ccc21 (configuration not stated)	29.1 µM [falling, single point]	–
Fc1ccc(C2c3cccn3CCN2C(=S)Nc2cccc(Br)c2)cc1 (configuration not stated)	11.2 µM [falling, partial curve]	14.1 µM [rising, partial curve, poor fit]

Structure (SMILES)	AC50 [1]	AC50 [2]
CCOCCCNC(=S)N1C2CCC1CC(NC(=O)Nc1ccc(C(=O)OCC)cc1)C2 (configuration not stated)	0.708 µM [rising, full curve, poor fit]	–
S=C(c1ccc(-c2ccc(Cl)cc2Cl)o1)N1CCCCC1	10.3 µM [rising, partial curve, poor fit]	–
CC(=O)NNC(=S)NC(=O)c1ccc(C)cc1	11.2 µM [falling, partial curve]	–
CCN1C(=O)/C(=C/N(C(C)=O)c2ccccc2)N(c2ccccc2)C1=S	2.31 µM [rising, single point]	–
O=C(O)c1cc(N/N=C/c2ccc(-c3ccccc3)cc2)ccc1Cl	1.12 µM [falling, full curve]	–
Cc1ccc(NC(=O)c2cc(S(=O)(=O)NCCc3ccccc3)ccc2F)cc1Cl	23.1 µM [falling, single point]	13 µM [rising, partial curve, poor fit]
COc1ccccc1/C=C1\SC(=S)N(CCC(=O)NCCCN2CCOCC2)C1=O	8.91 µM [falling, partial curve, poor fit]	–
CCN(CC(=O)Nc1ccc2c(c1)OCCO2)C(=O)c1ccc(S(=O)(=O)N(C)C)cc1	1.84 µM [falling, full curve, poor fit]	–
CCCCNc1ncnc2c1nnn2C	15.8 µM [falling, single point]	–
Cc1cc(C(=O)NCc2ccccc2Br)no1	7.31 µM [falling, partial curve, poor fit]	–
CCCCn1nnc(NC(=S)NC(=O)c2ccc(OCC)c([N+](=O)[O-])c2)n1	2 µM [falling, partial curve, poor fit]	–
COc1ccc(C2CC(c3ccc([N+](=O)[O-])cc3)=NN2C(C)=O)cc1 (configuration not stated)	15.8 µM [falling, partial curve, poor fit]	–
O=C1CC(c2ccccc2Oc2cccc(Cl)c2)C(n2cncn2)C(=O)C1C1NCCc2ccccc21 (configuration not stated)	35.5 µM [falling, single point]	20 µM [rising, partial curve, poor fit]
CCOCCCNC(=O)c1cc(-c2ccc(Br)s2)nc2ccccc12	1 µM [rising, full curve]	–
CCCNC(=O)C(=O)N/N=C/c1cccs1	23.1 µM [falling, single point]	–
COC(=O)c1ccc(Cn2cnc3ccccc3c2=O)cc1	18.4 µM [falling, partial curve]	–
COc1cccc2sc(N(Cc3cccnc3)C(=O)Cc3ccccc3)nc12	35.5 µM [falling, single point]	–
COc1cc(-c2cc(=O)c3c(O)cc(O)cc3o2)ccc1O	11.2 µM [falling, single point]	–
COc1ccc(C(=O)N=c2nc3ccccn3s2)cc1	1.58 µM [falling, full curve]	–
Cc1nc2ccccc2c(=O)n1-c1ccc(F)c(NS(=O)(=O)c2ccccc2F)c1	29.1 µM [rising, single point]	–
N/C(=N\OC(=O)COc1ccc(Cl)cc1Cl)c1cccnc1	2.91 µM [rising, partial curve, poor fit]	–

One compound at a time, as listed above. Order of values: AC50 [1] | AC50 [2]
CCCNC(=O)C(=O)N/N=C/c1cccs1 is entered as 23.1 µM [falling, single point] | –
CCOCCCNC(=S)N1C2CCC1CC(NC(=O)Nc1ccc(C(=O)OCC)cc1)C2 (configuration not stated) is entered as 0.708 µM [rising, full curve, poor fit] | –
O=C(O)c1cc(N/N=C/c2ccc(-c3ccccc3)cc2)ccc1Cl is entered as 1.12 µM [falling, full curve] | –

Remaining list, next part

Structure (SMILES)	AC50 [1]	AC50 [2]
COc1cc2nc(/C=C/c3cc(OC)c(OC)c(OC)c3)sc2cc1SC	29.1 µM [falling, single point]	–
CC(OC(=O)c1snc(C(=O)NC2CCCCC2)c1N)C(=O)NC1CCCCC1 (configuration not stated)	0.291 µM [falling, full curve]	–
COC(=O)c1cccc(NC(=O)CCSc2ccc(Cl)cc2)c1C	35.5 µM [rising, single point]	–
Cc1ccc(/C=N/n2c(-c3ccco3)n[nH]c2=S)cc1	35.5 µM [falling, single point]	–
COc1ccccc1-n1c(CNC(=O)c2ccco2)nnc1SCC(=O)Nc1nccs1	0.517 µM [falling, full curve, poor fit]	–
CCCn1c(SCc2ccc(C(=O)OC)o2)nc2ccccc2c1=O	1.58 µM [rising, partial curve, poor fit]	–
C=CCN1C(=O)C(Cc2ccc(C)cc2)S/C1=N/N=C/c1ccco1 (configuration not stated)	23.1 µM [rising, partial curve, poor fit]	–
Cc1c(N=C/C=C2\N(C)c3ccccc3C2(C)C)c(=O)n(-c2ccccc2)n1C	7.94 µM [rising, partial curve, poor fit]	–
CC1(C)N=C(SCC(=O)Nc2ccccc2)C(c2ccc(Cl)cc2)=N1	3.26 µM [falling, single point]	–
O=c1[nH]nc(Cc2ccc(-c3ccccc3Cl)o2)c2ccccc12	13 µM [falling, partial curve]	–
Cc1cccc2sc(NC(=O)CCn3cccc3)nc12	7.94 µM [falling, partial curve, poor fit]	–
CCOC(=O)N1CCN(c2cc(N3CCN(CC)CC3)c(F)cc2[N+](=O)[O-])CC1C (configuration not stated)	35.5 µM [falling, partial curve, poor fit]	–
Cc1ccc(S(=O)(=O)/N=C(/NC(=S)Nc2ccccc2)c2ccccc2)cc1	16.4 µM [falling, single point]	–
Cn1cc(C(CC(=O)O)C(=O)O)c2ccccc21 (configuration not stated)	2.31 µM [falling, partial curve, poor fit]	–
N#C/C(C(=O)Nc1ccc(Cl)cc1)=C(/S)Nc1ccccc1	2 µM [rising, full curve]	11.2 µM [falling, single point]
COc1ccc(C(=O)Oc2c(CN3CCOCC3)cc(Cl)c3cccnc23)cc1	–	18.4 µM [falling, single point]
Cn1c(N)c(C(=O)COC(=O)CC(NC(N)=O)c2ccc(Cl)cc2)c(=O)n(C)c1=O (configuration not stated)	0.0517 µM [rising, partial curve, poor fit]	–
O=S(=O)(CCc1nc2ccccc2s1)c1ccc2ccccc2c1	5.8 µM [rising, full curve, poor fit]	–
O=C(O)CCCN1C(=O)/C(=C\C(Cl)=C\c2ccccc2)SC1=S	0.631 µM [falling, full curve]	–
CCOC(=O)Cn1nnnc1CN(CCc1ccccc1)Cc1cc2cc(CC)ccc2[nH]c1=O	20.6 µM [falling, single point]	–
